Measurements reported in PubChem BioAssay AID1259254 (NCATS, 2017)

Purpose: 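Finding genes that stop cells copying their DNA twice in one cycle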 (primary screen)
System: human HCT116 colorectal cancer cells
Reagents: single siRNA against human genes
Timing: 3 days
Measurement: 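Imaged Hoechst DNA stain sorts each cell into a cycle phase by DNA amount; per plate, G2 fraction set to 0% for non-targeting and 100% for GMNN siRNA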
Direction: G2 robust z-score and G2 cells, % of GMNN control: higher = more G2 cells, more excess DNA replication; raw share of cells in G2: higher = larger share of cells with G2 DNA content
Call rule: 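An siRNA counts as active if its G2 robust z-score lies at least 5 MADs above the screen median; here such calls match roughly 38% of GMNN control or more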
In all, the deposit lists about 59,000 reagents; this is an unselected part. Over the whole deposit, about 1,550 (2.6%) were called active. 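G2 share is only a proxy for re-replication; each gene was hit by three separate siRNAs, and active genes were retested.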 Raw values are not corrected between plates. Unmarked entries are inactive. The numbers tell different reagents against one gene apart. Reagent sequences are not shown. The record does not give: the amount of reagent.

gene symbol | reagent | G2 robust z-score | G2 cells, % of GMNN control | raw share of cells in G2 (%)
MORF4L1 (mortality factor 4 like 1) | 1 | -0.602 | -1.27 | 3.43
MORF4L1 (mortality factor 4 like 1) | 2 | -0.345 | 0.538 | 6.69
MORF4L1 (mortality factor 4 like 1) | 3 | 0.443 | 6.09 | 8.34
PHTF1 (putative homeodomain transcription factor 1) | 1 | -1.18 | -5.31 | 2.12
PHTF1 (putative homeodomain transcription factor 1) | 2 | -0.72 | -2.1 | 5.65
PHTF1 (putative homeodomain transcription factor 1) | 3 | 3.1 | 24.8 | 16.5
SMAD2 (SMAD family member 2) | 1 | 1.95 | 16.7 | 12.1
SMAD2 (SMAD family member 2) | 2 | 5.03 (active) | 38.4 | 19.4
SMAD2 (SMAD family member 2) | 3 | 4.79 | 36.7 | 16.6
LOC440084 | 1 | 0.569 | 6.97 | 6.06
LOC440084 | 2 | -0.459 | -0.263 | 3.03
LOC440084 | 3 | 0.638 | 7.46 | 6.5
HAND2-AS1 (HAND2 antisense RNA 1) | 1 | 0.691 | 7.83 | 7.69
HAND2-AS1 (HAND2 antisense RNA 1) | 2 | 2.46 | 20.3 | 13.2
HAND2-AS1 (HAND2 antisense RNA 1) | 3 | 0.819 | 8.73 | 4.76
UNC5B (unc-5 netrin receptor B) | 1 | 1.33 | 12.3 | 9.21
UNC5B (unc-5 netrin receptor B) | 2 | 1.26 | 11.8 | 11.6
UNC5B (unc-5 netrin receptor B) | 3 | 1.28 | 12 | 9.73
CC2D1B (coiled-coil and C2 domain containing 1B) | 1 | 0.0431 | 3.27 | 4.77
CC2D1B (coiled-coil and C2 domain containing 1B) | 2 | -0.682 | -1.83 | 2.34
CC2D1B (coiled-coil and C2 domain containing 1B) | 3 | -0.593 | -1.2 | 2.38
NEK2 (NIMA related kinase 2) | 1 | -0.0855 | 2.37 | 6.39
NEK2 (NIMA related kinase 2) | 2 | 0.603 | 7.21 | 7.84
NEK2 (NIMA related kinase 2) | 3 | -0.638 | -1.52 | 3.49
DNAJB6 (DnaJ heat shock protein family (Hsp40) member B6) | 1 | -0.165 | 1.81 | 4.13
DNAJB6 (DnaJ heat shock protein family (Hsp40) member B6) | 2 | 0.942 | 9.59 | 10.3
DNAJB6 (DnaJ heat shock protein family (Hsp40) member B6) | 3 | -0.705 | -2 | 2.5

A portion from the list above, for reference:
gene symbol | reagent | G2 robust z-score | G2 cells, % of GMNN control | raw share of cells in G2 (%)
MORF4L1 (mortality factor 4 like 1) | 1 | -0.602 | -1.27 | 3.43
MORF4L1 (mortality factor 4 like 1) | 2 | -0.345 | 0.538 | 6.69
MORF4L1 (mortality factor 4 like 1) | 3 | 0.443 | 6.09 | 8.34

The list goes on:
gene symbol | reagent | G2 robust z-score | G2 cells, % of GMNN control | raw share of cells in G2 (%)
MPHOSPH9 (M-phase phosphoprotein 9) | 1 | -0.4 | 0.153 | 5.4
MPHOSPH9 (M-phase phosphoprotein 9) | 2 | -0.36 | 0.433 | 4.12
MPHOSPH9 (M-phase phosphoprotein 9) | 3 | 0.398 | 5.77 | 5.5
CYP11B1 (cytochrome P450 family 11 subfamily B member 1) | 1 | -0.105 | 2.23 | 4.86
CYP11B1 (cytochrome P450 family 11 subfamily B member 1) | 2 | 1.06 | 10.5 | 8.81
CYP11B1 (cytochrome P450 family 11 subfamily B member 1) | 3 | 0.499 | 6.48 | 7.27
CTNNA3 (catenin alpha 3) | 1 | -0.273 | 1.04 | 6.64
CTNNA3 (catenin alpha 3) | 2 | -0.767 | -2.43 | 3.38
CTNNA3 (catenin alpha 3) | 3 | -0.704 | -1.99 | 3.34
RPL3L (ribosomal protein L3 like) | 1 | 0.0935 | 3.63 | 6.51
RPL3L (ribosomal protein L3 like) | 2 | 2.64 | 21.5 | 12.7
RPL3L (ribosomal protein L3 like) | 3 | 0.609 | 7.25 | 5.97
SCOC (short coiled-coil protein) | 1 | 0.205 | 4.41 | 6.5
SCOC (short coiled-coil protein) | 2 | 3.48 | 27.4 | 16.9
SCOC (short coiled-coil protein) | 3 | 0.67 | 7.68 | 4.72
CCNJL (cyclin J like) | 1 | 2.63 | 21.5 | 10.7
CCNJL (cyclin J like) | 2 | -0.247 | 1.23 | 3.5
CCNJL (cyclin J like) | 3 | 0.939 | 9.57 | 7.9
GABRG1 (gamma-aminobutyric acid type A receptor subunit gamma1) | 1 | 0.00587 | 3.01 | 6.38
GABRG1 (gamma-aminobutyric acid type A receptor subunit gamma1) | 2 | 0.23 | 4.59 | 6.33
GABRG1 (gamma-aminobutyric acid type A receptor subunit gamma1) | 3 | -0.0798 | 2.41 | 5.31
PTCD3 (pentatricopeptide repeat domain 3) | 1 | 0.0422 | 3.26 | 5.78
PTCD3 (pentatricopeptide repeat domain 3) | 2 | 0.0684 | 3.45 | 5.57
PTCD3 (pentatricopeptide repeat domain 3) | 3 | -1.09 | -4.73 | 1.63
DPH5 (diphthamide biosynthesis 5) | 1 | -0.368 | 0.375 | 3.94
DPH5 (diphthamide biosynthesis 5) | 2 | -0.512 | -0.636 | 5.66
DPH5 (diphthamide biosynthesis 5) | 3 | 1.68 | 14.8 | 9.71
PDE1C (phosphodiesterase 1C) | 1 | -1.09 | -4.67 | 2.9
PDE1C (phosphodiesterase 1C) | 2 | -0.989 | -3.99 | 2.3
PDE1C (phosphodiesterase 1C) | 3 | 2.42 | 20 | 11.3
XRCC5 (X-ray repair cross complementing 5) | 1 | 0.174 | 4.19 | 5.82
XRCC5 (X-ray repair cross complementing 5) | 2 | 2.67 | 21.8 | 11.6
XRCC5 (X-ray repair cross complementing 5) | 3 | -1.13 | -4.95 | 3.51
XPOT (exportin for tRNA) | 1 | 3.16 | 25.2 | 12.5
XPOT (exportin for tRNA) | 2 | -0.828 | -2.86 | 5.22
XPOT (exportin for tRNA) | 3 | -0.136 | 2.01 | 4.83
IQCB1 (IQ motif containing B1) | 1 | -0.51 | -0.624 | 5.05
IQCB1 (IQ motif containing B1) | 2 | 1.42 | 13 | 9.36
IQCB1 (IQ motif containing B1) | 3 | -0.167 | 1.79 | 4.06
BPIFB1 (BPI fold containing family B member 1) | 1 | -0.619 | -1.39 | 3.49
BPIFB1 (BPI fold containing family B member 1) | 2 | -0.217 | 1.44 | 3.45
BPIFB1 (BPI fold containing family B member 1) | 3 | 0.743 | 8.2 | 5.52
